The list shows a part of the results. These are further read-outs of the screen, such as a control signal, another cell line or another target. No call is given for them. Compounds called inactive in the main read-out are mostly missing here. Potencies come from curve fits of mixed quality, noted in brackets.

This assay in a line: qHTS Assay for Lipid Storage Modulators in Drosophila S3 Cells.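 For cell number change: cells counted by Cell Tracker Red CMTPX staining in the red channel.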 The following applies: BODIPY lipid droplet fluorescence, 18-24 h; for cell number change: measured here: cell count max response, cells fed with added oleic acid. In short, it runs like this:
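Drosophila S3 cells got compounds at several concentrations plus oleic acid (400 uM solution). Laser-scanning cytometry with 488 nm excitation read lipid droplets at 500-530 nm and cells at 575-640 nm. Percent activity was relative to 20 uM Triacsin C.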
In general terms: Quantitative high-throughput screening tests each substance at several concentrations.

[1] abbreviates: measured here: lipid fluorescence (Fed channel) AC50, cells fed with added oleic acid.
Setting [2] is: measured here: cell number channel AC50, cells fed with added oleic acid.

As for `COc1ccc(N2CCN(C(=O)COc3ncnc4ccccc34)CC2)cc1`, the cell number change turned out to be 13.9%.
In the case of `CCC(CC)COC(=O)C(C#N)c1nc2ccccc2nc1N1CCOCC1` (stereo not given), the cell number change is -18%. In addition, the AC50 under setting [1] was 0.0731 µM [rising, full curve, poor fit].
For the compound `CC1CCCCC1NC(=O)CN(C)S(=O)(=O)c1ccc2c(c1)c(=O)n(C)c(=O)n2C` (stereo not given), the cell number change was -26.5%. Further, the AC50 under setting [2] is 0.731 µM [falling, full curve, poor fit]. Besides, under setting [1], the AC50 is 0.0517 µM [falling, full curve, poor fit].
For `Cc1cc(OC(C)C(=O)NCC2CCC(C(=O)O)CC2)c2c(C)c(C)c(=O)oc2c1` (stereo not given), the cell number change worked out at 8.43%. The AC50 under setting [1] is 1.84 µM [falling, partial curve].
As to `Cc1cc(OCC(=O)Nc2cc(C(C)(C)C)on2)ccc1[N+](=O)[O-]`, the cell number change is -17.8%. Under setting [1], the AC50 is 0.366 µM [falling, partial curve].
For the compound `Nn1c(-c2ccccc2)nc2cc(Cl)ccc2c1=O`, the cell number change was -4.21%.
Same read-out and setting: the figure for `CC(=O)c1ccc(NC(=O)c2cc(-c3cccs3)on2)cc1` is 13.9%.
`CCOc1ccc(Cl)cc1S(=O)(=O)NCc1cccnc1`: the cell number change is 66.9%. Also, the AC50 under setting [2] was 8.2 µM [rising, partial curve]. Moreover, the concentration at half-maximal activity (AC50) under setting [1] was 2.59 µM [rising, partial curve].
Regarding `CCOCCn1c(N2CCCC2)nc2c1c(=O)[nH]c(=O)n2C`, the cell number change was -7.3%. Also, the AC50 under setting [2] is 1.84 µM [rising, partial curve].
On to `Cc1cc(C)n(CCC(=O)N=Nc2c(O)[nH]c3ccccc23)n1`, for which, under setting [1], the AC50 was 2.31 µM [rising, partial curve].
Regarding `COc1ccc(C(=O)NC(=S)Nc2ccc3c(c2)Cc2ccccc2-3)cc1`, the cell number change is 21.9%. Also, the AC50 under setting [2] is 4.61 µM [rising, full curve, poor fit]. In addition, the AC50 under setting [1] was 0.00411 µM [rising, full curve, poor fit].
As to `O=C(CCN1CCN(Cc2ccccc2)CC1)NNC(=O)Nc1cccc(Cl)c1`, the cell number change is 1.08%. For the same compound, the AC50 under setting [1] is 29.1 µM [falling, single point].
As for `CN1CCN(C(=O)CSc2nc3c(c(=O)n(C)c(=O)n3C)n2C)CC1`, the cell number change worked out at 3.04%.
`Nc1nc2ccc([N+](=O)[O-])cc2[nH]1`: the cell number change amounted to 3.84%. Besides, the AC50 under setting [1] is 0.092 µM [rising, full curve, poor fit].
`O=C(C1CCC1)N1CCc2cc(S(=O)(=O)NCc3ccco3)ccc21`: the cell number change was 23.2%. The half-maximal activity concentration (AC50) under setting [1] is 20.6 µM [rising, partial curve].
Take `C/C(=N/NC(=O)c1cnccn1)c1cccs1`: the AC50 under setting [2] was 3.66 µM [falling, partial curve, poor fit] and the AC50 under setting [1] is 29.1 µM [falling, single point].
Turning to `COc1ccc(S(=O)(=O)NCc2ccc3c(c2)cc(C)n3C)cc1`, the cell number change was -57.8%. Besides, under setting [2], the AC50 is 32.6 µM [falling, partial curve, poor fit]. Besides, the AC50 under setting [1] is 14.6 µM [falling, partial curve, poor fit].
For `CCNC(=S)N/N=C1\CCCCc2ccccc21`, the cell number change was -49.7%. Under setting [2], the AC50 was 32.6 µM [falling, single point]. Further, under setting [1], the AC50 is 29.1 µM [falling, single point].
`COc1ccc(S(=O)(=O)NNC(=O)c2cc3c4ccccc4n(C)c3s2)cc1`: the cell number change was -27.6%.
Regarding `NC(=O)c1cc([N+](=O)[O-])cc2c1C=Cc1ccccc1O2`, the cell number change turned out to be 22.4%. In addition, under setting [2], the AC50 is 0.058 µM [falling, single point]. Further, the AC50 under setting [1] is 6.51 µM [falling, single point].
Consider `COc1ccc(C(=O)NC2CC2)cc1OC1CCN(Cc2ccccc2)CC1`, for which the cell number change was -8.67%. In addition, the AC50 under setting [1] is 6.51 µM [falling, single point].
Turning to `C=CCn1c(Cc2csc(N)n2)nnc1SCC(=O)Nc1ccc(C(=O)OCC)cc1`, the cell number change is 19%. Besides, the half-maximal activity concentration (AC50) under setting [2] was 0.103 µM [rising, full curve, poor fit]. Further, under setting [1], the AC50 is 0.092 µM [rising, full curve, poor fit].
Take `COc1ccc(NC(=O)CSc2nc(C)cs2)cc1OC`: the cell number change was -7%.
Same read-out and setting: for `CCn1c(-c2sc(-c3ccccc3)nc2C)n[nH]c1=S` the value was 90.8%; for `O=C(CCCn1c(SCC(=O)c2ccc(Cl)cc2)nc2ccccc2c1=O)NCc1ccco1`, 0.0707%.
Take `CN(CC(=O)NCCc1ccccc1)S(=O)(=O)c1cnc[nH]1`: the cell number change came to 1.38%. Moreover, the AC50 under setting [1] was 0.731 µM [falling, full curve, poor fit].
For `Cc1ccc(Cn2cc(/C=C/C(=O)O)c(-c3ccccc3)n2)cc1`, the cell number change is -26.8%. Moreover, the concentration at half-maximal activity (AC50) under setting [1] was 3.66 µM [falling, single point].
Turning to `CCOC(=O)C1=NN(C(=O)Cc2ccccc2)C(O)(c2ccc(Cl)cc2)C1` (stereo not given), the cell number change is -14.1%. Also, the AC50 under setting [1] was 0.731 µM [falling, single point].
Take `CC1(C)CC(=O)c2cnc(NC(=O)CSC(=S)N3CCCCC3)nc2C1`: the cell number change was 14.9%.
Take `c1ccc(N(c2ccccc2)c2nc(N3CCCC3)nc(-n3ccnc3)n2)cc1`: the cell number change was -32.5%. Further, the concentration at half-maximal activity (AC50) under setting [2] was 29.1 µM [falling, single point]. For the same compound, under setting [1], the concentration at half-maximal activity (AC50) is 29.1 µM [falling, single point].
With `CCOC(=O)CSC1=NC(=O)/C(=C\c2ccc(Cl)cc2)S1`, the cell number change was -20.6%.
As to `Cc1cccc(C)c1NC(=O)CN(C)C(=O)CCC(=O)c1ccccc1`, the cell number change worked out at 19.1%. The half-maximal activity concentration (AC50) under setting [1] is 0.146 µM [rising, full curve, poor fit].
In the case of `Clc1ccccc1CSc1ncn(-c2ccccc2)n1`, the cell number change is -30.4%. Further, the AC50 under setting [2] was 13 µM [falling, partial curve]. Moreover, under setting [1], the AC50 was 29.1 µM [falling, single point].
For the compound `CN(Cc1ccccc1F)C(=O)CN1c2cccc3cccc(c23)S1(=O)=O`, the cell number change came to 9.01%. Further, the AC50 under setting [2] is 0.0731 µM [falling, full curve, poor fit].
On to `CC(C)(C)NC(=S)NCc1ccncc1`, for which the cell number change was -9.2%. For the same compound, the AC50 under setting [1] is 3.26 µM [falling, full curve, poor fit].
With `Cc1cnc(NC(=O)c2sc3ccccc3c2Cl)s1`, the cell number change amounted to 23.4%. The AC50 under setting [1] was 2.59 µM [rising, partial curve].
Take `O=C(Nc1cccnc1Cl)c1cc(-c2ccco2)on1`: the cell number change was -17%. Moreover, under setting [2], the AC50 was 0.058 µM [falling, full curve, poor fit]. For the same compound, the AC50 under setting [1] was 0.517 µM [falling, full curve].
In the case of `CCN(CC(=O)Nc1ccccc1C(F)(F)F)C(=O)CCc1nc2sc3c(c2c(=O)[nH]1)CCCC3`, the cell number change came to 4.8%. Further, the half-maximal activity concentration (AC50) under setting [1] was 5.8 µM [falling, single point].

In general, AC50 refers to the midpoint of the concentration-response curve, whichever way the signal moves.

The record behind these values is PubChem BioAssay AID2685 (National Center for Advancing Translational Sciences (NCATS), 2010).
